The results in this text go back to paper PMC5445107.

Sequences of proteins named here, by UniProt entry; tags and fusion partners are left off. A change or cut given only in a name is not applied to a line headed by its entry.
UniProt Q99720: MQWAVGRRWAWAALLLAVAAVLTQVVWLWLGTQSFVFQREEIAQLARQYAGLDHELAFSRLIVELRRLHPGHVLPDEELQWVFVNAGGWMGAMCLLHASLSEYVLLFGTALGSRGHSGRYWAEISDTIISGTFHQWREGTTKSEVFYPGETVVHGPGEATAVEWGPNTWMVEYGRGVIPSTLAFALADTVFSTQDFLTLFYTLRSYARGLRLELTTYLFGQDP

Test [1] addresses sigma-1 receptor-Dsred (human) (UniProt Q99720). Nature of the test: co-IP; HEK-293T cells co-expressing both, RIPA lysate; precipitated with anti-sigma-1 receptor or anti-Cav2.2 antibody and agarose A beads at 4°C; blots with anti-Cav2.2 or anti-sigma-1 receptor antibody; IgG as negative control.
The target of test [2] is GFP-Cav2.2 channels (α1b+β1b+α2δ1 subunits) (UniProt Q02294). The test is described as above.

No constants are given. Whether binding was seen depends on the method and setting. In cells and extracts the contact can be indirect. Some entries that bind do so weakly or less than the wild type.

Turning to “GFP-Cav2.2 channels (α1b+β1b+α2δ1 subunits) (from UniProt Q02294 1-2336; Q02641-1 1-598; P54290 25-1091) (complex)”, the binding result in test [1] is listed as “binds”.
Consider “sigma-1 receptor-Dsred (from UniProt Q99720-1 1-223)”, for which, in test [2], the binding entry is “binds”.
